## Screening data, single-dose tests

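Whole-cell growth test on Mycobacterium tuberculosis, read after 3 days in glucose-containing 7H9 medium; the read-out is not stated. Compounds at 50 µM. Higher reads as more growth inhibition (inferred: compounds with an IC50 in retests scored well above the rest). Of about 69,000 compounds tested this way, about 760 (1.1%) reached 50% or more in at least one test.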

Values are the deposited “Percent Effect”, in %. The record does not define 0% and 100%; most values in the screen are far below 50% and negative numbers occur (in some assays of this library far below -100). Compounds were drawn at random from those tested, without regard to their results. Two or more numbers in one place are separate tests of the same structure; such repeats can differ widely.

{"compound": "COC(=O)c1ncccc1N1CCCC1", "percent effect": 9.41}
{"compound": "NC(=O)CN1CCCN(C(=O)Cc2ccc3ccccc3c2)CC1", "percent effect": -34}
{"compound": "CCc1ccc(C(=O)Nc2cccc(CN3CCCC3C(N)=O)c2)cc1", "stereo": "centres undefined", "percent effect": 1.875}
{"compound": "CN(C)c1cc(C(=O)Nc2cccnc2N2CCSCC2)ccn1", "percent effect": -2.441}
{"compound": "CC(C)(Oc1ccc(C(N)=O)cc1)C(=O)N(CCC#N)CC1CCCO1", "stereo": "centres undefined", "percent effect": -13.28}
{"compound": "CC(C)CN(Cc1ccccn1)Cc1ccccc1OCC(=O)O", "percent effect": "1.673 and -11.83"}
{"compound": "CC(C)=CCC/C(C)=C/CN1CCN(C)C2(CCNC(=O)CC2)C1", "stereo": "centres undefined", "percent effect": 22.5}
{"compound": "CSc1ccc(NC(=O)NCc2nncn2C2CC2)cc1F", "percent effect": 9.936}
{"compound": "Cc1ccc(C(F)(F)F)cc1C(=O)N[C@H]1CN(CCO)C[C@@H]1C1CC1", "percent effect": 16.42}
{"compound": "Cc1ccc(C2(C(=O)N3CCC(n4cc(C(C)O)nn4)CC3)CC2)cc1", "stereo": "centres undefined", "percent effect": "4.052 and -8.029"}
{"compound": "O=C(c1ccoc1)N1CCCC1C1CCN(Cc2ccccc2)CC1", "stereo": "centres undefined", "percent effect": 18.23}
{"compound": "CC(C)(C)N1CC(C(=O)N2CCN(CCn3cccc3)CC2)CC1=O", "stereo": "centres undefined", "percent effect": 9.631}
{"compound": "Cc1cccc(S(=O)(=O)NCC(C)N2CCN(C)CC2)c1Cl", "stereo": "centres undefined", "percent effect": -0.8695}
{"compound": "NC(=O)c1cc(C2CCCN(Cc3ccc4c(c3)OCCO4)C2)n[nH]1", "stereo": "centres undefined", "percent effect": 18.36}
{"compound": "COc1ccc(NC(=O)Cn2nc(C)c(C)cc2=O)cc1", "percent effect": 13.1}
{"compound": "COC(=O)c1ccoc1CN(C)Cc1ccccc1", "percent effect": -3.099}
{"compound": "CCC[C@H]1CN(CCS(C)(=O)=O)C[C@@H]1NC(=O)c1cc(CC)on1", "percent effect": 8.38}
{"compound": "CNc1cc2c(nn1)CCN(C(=O)c1ccc3c(c1)OCO3)C2", "percent effect": 6.855}
{"compound": "CCC[C@H]1CN(S(=O)(=O)c2ccc(Cl)cc2)C[C@@H]1NC(C)=O", "percent effect": "1.995 and -8.807"}
{"compound": "CCc1nc(-c2cccc(C(=O)O)c2)no1", "percent effect": -22.37}
{"compound": "COc1c(C2CCCN2Cc2csc(C(C)C)n2)c(C)nn1C", "stereo": "centres undefined", "percent effect": -36.91}
{"compound": "COCc1nc(N(C)C)ncc1C(=O)NC(C)C", "percent effect": 7.835}
{"compound": "CN(Cc1cccnc1)CC1CCCN1c1cccnn1", "stereo": "centres undefined", "percent effect": -36.14}
{"compound": "COCC(=O)N1CCn2c(CN3CCN(C)CC3)cnc2C1.O=C(O)C(F)(F)F.O=C(O)C(F)(F)F", "percent effect": 14.1}
{"compound": "Cc1c[nH]c(CN(C)C(C(=O)O)c2c(F)cccc2Cl)n1", "stereo": "centres undefined", "percent effect": "10.27 and 0.3449"}
{"compound": "Cc1nc(CC(=O)NCCNc2nccc(C(F)(F)F)n2)cs1", "percent effect": -10.83}
{"compound": "O=C(O)C(F)(F)F.O=C(O)C(F)(F)F.[H][C@]12CN(Cc3ccncc3)C[C@@]1([H])OCCN(S(C)(=O)=O)C2", "percent effect": "-2.347 and -5.283"}
{"compound": "CN1CCC2(CC1)CN(Cc1ccc(C3CCCCO3)o1)CCCN2C", "stereo": "centres undefined", "percent effect": -6.863}
{"compound": "Cc1cc(C)nc(N2CCC(CNC(=O)c3ccccn3)CC2)n1", "percent effect": 14.01}
{"compound": "COc1ccc(C2=NOC(C#N)C2)cc1", "stereo": "centres undefined", "percent effect": 54.01}
{"compound": "CNC(=O)C1CN(C(=O)Cc2ccc(OC)cc2)Cc2cn(C)nc21", "stereo": "centres undefined", "percent effect": 15.97}
{"compound": "CC(C(=O)NCc1cccc(N2CCCC2=O)c1)S(C)(=O)=O", "stereo": "centres undefined", "percent effect": 6.573}
{"compound": "NC(=O)CC1CCN(c2ncnc3cccc(F)c23)CC1", "percent effect": "-0.7831 and -53.62"}
{"compound": "O=C(O)C(F)(F)F.[H][C@@]12CN(CC3CCOCC3)C[C@]1([H])C(=O)N(c1ccsc1)C2", "percent effect": "0.8483 and -14.78"}
{"compound": "COCC(=O)N1C[C@@H](c2cccc(OC)c2)[C@@]2(CCCCC(=O)N2)C1", "percent effect": -2.458}
{"compound": "Cc1ccc(OCC(O)CN2CCC(Cn3cccn3)CC2)cc1", "stereo": "centres undefined", "percent effect": 7.195}
{"compound": "O=C(C1CCC2(CCN(CC3CC3)CC2)O1)N1CCCC1.O=C(O)C(F)(F)F", "stereo": "centres undefined", "percent effect": 7.941}
{"compound": "Cc1oc(NC(=O)C(C)N2CCN(C(=O)C3CC3)CC2)c(C#N)c1C", "stereo": "centres undefined", "percent effect": -21.91}
{"compound": "[H][C@]12CCN(S(C)(=O)=O)[C@@]1([H])CCC(COCC(=O)N1CCCC1)O2", "stereo": "some centres undefined", "percent effect": -28.24}
{"compound": "O=C(Nc1ccc(CN2CCOCC2)cc1)c1nccn2ccnc12", "percent effect": -17.8}

Some entries from above, unchanged:

- Cc1ccc(C2(C(=O)N3CCC(n4cc(C(C)O)nn4)CC3)CC2)cc1 (centres undefined) : 4.052% and -8.029%
- CNC(=O)C1CN(C(=O)Cc2ccc(OC)cc2)Cc2cn(C)nc21 (centres undefined) : 15.97%
- Cc1cc(C)nc(N2CCC(CNC(=O)c3ccccn3)CC2)n1 : 14.01%
- Cc1nc(CC(=O)NCCNc2nccc(C(F)(F)F)n2)cs1 : -10.83%

From ChEMBL document CHEMBL3988442, “University of Dundee, Small-Polar-MMV Screening Library” (2021).